{"source": "PubChem BioAssay AID1671195 (Yale University, 2021)", "assay": "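Knockdowns that increase or decrease uptake of fluorescent LDL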 (primary screen)", "system": "human Huh7 hepatoma cells", "reagents": "siRNA pool against human genes, 18 nM", "duration": "about 2 to 2.5 days of knockdown, then 8 h LDL uptake", "challenge": "DiI-labelled LDL at 30 µg/ml for 8 h, in lipoprotein-deficient serum medium", "read-out": "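Per-cell DiI-LDL intensity by automated imaging; well means scaled to the plate median and given as a robust z-score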", "direction": "robust z-score: higher = more LDL uptake after knockdown", "hit rule": "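a gene counts as active if at least two replicate z-scores exceed ±2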", "note": "Shown is a random part of about 22,000 reagents. Over the whole deposit, about 1,510 (6.9%) got an active call. 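Active includes knockdowns raising or lowering LDL uptake; positive z-scores mean more uptake, negative mean less.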"}
{"Gene":"ZUP1 (zinc finger containing ubiquitin peptidase 1)","robust z-score, replicate 1":0.381,"robust z-score, replicate 2":-0.54,"robust z-score, replicate 3":-0.0157,"call":"inactive"}
{"Gene":"ICOS (inducible T cell costimulator)","robust z-score, replicate 1":0.328,"robust z-score, replicate 2":-0.381,"robust z-score, replicate 3":0.552,"call":"inactive"}
{"Gene":"PLAC8L1 (PLAC8 like 1)","robust z-score, replicate 1":-1.48,"robust z-score, replicate 2":-1.21,"robust z-score, replicate 3":-1.54,"call":"inactive"}
{"Gene":"PATE2 (prostate and testis expressed 2)","robust z-score, replicate 1":0.544,"robust z-score, replicate 2":0.159,"robust z-score, replicate 3":-0.213,"call":"inactive"}
{"Gene":"DACT1 (dishevelled binding antagonist of beta catenin 1)","robust z-score, replicate 1":-0.327,"robust z-score, replicate 2":-0.574,"robust z-score, replicate 3":0.509,"call":"inactive"}
{"Gene":"LINC00971 (long independently transcribed non-coding RNA 971)","robust z-score, replicate 1":-1.42,"robust z-score, replicate 2":-1.85,"robust z-score, replicate 3":-1.63,"call":"inactive"}
{"Gene":"GJC2 (gap junction protein gamma 2)","robust z-score, replicate 1":1.46,"robust z-score, replicate 2":1.85,"robust z-score, replicate 3":0.781,"call":"inactive"}
{"Gene":"GP5 (glycoprotein V platelet)","robust z-score, replicate 1":-0.16,"robust z-score, replicate 2":0.115,"robust z-score, replicate 3":0.435,"call":"inactive"}
{"Gene":"LOC256176 (retired record)","robust z-score, replicate 1":-1.25,"robust z-score, replicate 2":-0.772,"robust z-score, replicate 3":-0.772,"call":"inactive"}
{"Gene":"APOBEC2 (apolipoprotein B mRNA editing enzyme catalytic subunit 2)","robust z-score, replicate 1":-2.15,"robust z-score, replicate 2":-2.42,"robust z-score, replicate 3":-2.21,"call":"active"}
{"Gene":"RHBDD1 (rhomboid domain containing 1)","robust z-score, replicate 1":0.806,"robust z-score, replicate 2":1.29,"robust z-score, replicate 3":0.893,"call":"inactive"}
{"Gene":"ZFTRAF1 (zinc finger TRAF-type and ring finger containing 1)","robust z-score, replicate 1":-0.514,"robust z-score, replicate 2":-1.25,"robust z-score, replicate 3":-0.219,"call":"inactive"}
